PubChem BioAssay AID1671195, Yale University | 2021

- Purpose: 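Regulators of LDL receptor activity judged by labelled LDL uptake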 (primary screen)
- Cell system: human Huh7 hepatoma cells
- Reagent: siRNA pool against human genes, 18 nM
- Duration: about 2 to 2.5 days of knockdown, then 8 h LDL uptake
- Conditions: DiI-labelled LDL at 30 µg/ml for 8 h, in lipoprotein-deficient serum medium
- Read-out: 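Per-cell DiI-LDL intensity by automated imaging; well means scaled to the plate median and given as a robust z-score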
- Reading the numbers: robust z-score: higher = more LDL uptake after knockdown
- Rule for the call: 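a gene counts as active if at least two replicate z-scores exceed ±2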
Shown is a random part of about 22,000 deposited reagents. In the full data, about 1,510 (6.9%) are marked active. 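Active includes knockdowns raising or lowering LDL uptake; positive z-scores mean more uptake, negative mean less.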

gene | robust z-score, replicate 1 | robust z-score, replicate 2 | robust z-score, replicate 3 | call
RIPOR2 | -0.641 | 0.388 | -0.65 | inactive
MMAB | 2.18 | 2.5 | 2.5 | active
TYSND1 | -0.422 | -0.706 | -0.292 | inactive
RBFA | 0.19 | -0.302 | -0.579 | inactive
DHX32 | -1.01 | -1.29 | -0.343 | inactive
VWA8 | -0.304 | -0.342 | -0.142 | inactive
ZNF468 | 0.6 | 0.384 | 0.405 | inactive
KLHL31 | 1.18 | 0.785 | 1.11 | inactive
SMIM8 | -0.57 | -0.687 | 1.23 | inactive
INO80D | -1.72 | -2.04 | -0.772 | inactive
LCE5A | -0.508 | -0.472 | -0.647 | inactive
VPS41 | 3.04 | 3.09 | 2.76 | active
KRT8P12 | -0.88 | -0.495 | -0.608 | inactive
TRMT61B | -1.81 | -0.134 | -1.18 | inactive
ESYT2 | 2.66 | 1.57 | 1.97 | active
HOXB7 | -0.692 | -0.701 | -0.331 | inactive
RIPK1 | 1.05 | 0.415 | 0.374 | inactive
CIART | -0.532 | -0.159 | -0.677 | inactive
PTPRCAP | -0.234 | 0.335 | -0.211 | inactive
MAPKAPK3 | -0.449 | -0.308 | 0.0638 | inactive
LOC441879 (retired record) | 0.454 | 0.491 | 0.619 | inactive
IQCE | 1.18 | 0.11 | 1.07 | inactive
TMEM31 | 0.614 | 0.261 | 0.776 | inactive
CDC27 | 0.867 | 0.54 | 0.321 | inactive
ABCA4 | -0.811 | -0.513 | -0.955 | inactive
UGT2B28 | -1.47 | -1.4 | -0.744 | inactive
CYFIP2 | -0.1 | 0.518 | 0.569 | inactive
RPL7L1P8 | 0.542 | 1.07 | 0.53 | inactive
CTC1 | 1.6 | 0.909 | 1.56 | inactive
RBM44 | 0.0789 | -0.12 | 0.274 | inactive
PHYH | -0.485 | 0.64 | -0.00993 | inactive
LOC440981 (retired record) | -0.522 | 0.0397 | -0.278 | inactive
EMC8 | 1.46 | 1.5 | 0.131 | inactive
TBC1D10A | 0.294 | -0.0601 | -0.134 | inactive
RPS2P45 | 0.166 | 0.423 | 0.185 | inactive
LOC729417 | 0.748 | 0.638 | 0.75 | inactive
ZNF281 | -0.611 | -0.589 | -0.289 | inactive
MAGI2 | -0.599 | -0.236 | 0.443 | inactive
MSL2 | 1.11 | -0.799 | -0.885 | inactive
EBP | 0.832 | 1.91 | 0.745 | inactive
LOC390944 (retired record) | -0.352 | -0.492 | -0.229 | inactive
DONSON | -0.0794 | 0.49 | 0.456 | inactive
TMEM147 | -1.84 | 0.696 | -0.355 | inactive
EFTUD2 | -0.978 | -1.08 | -0.941 | inactive
HLA-F-AS1 | -0.337 | -0.202 | 0.0923 | inactive
CEP192 | -0.741 | 1.3 | -0.113 | inactive
BALR6 | -0.0965 | 0.164 | -0.272 | inactive
TECTB | -0.0152 | 0.104 | 1.19 | inactive
GRPR | 0.0508 | -0.0188 | -0.315 | inactive
FOXB2 | -1.7 | -1.21 | -1.43 | inactive
ACTL7B | 0.0994 | -0.276 | -0.593 | inactive
OR5P3 | -0.67 | -0.714 | -1.29 | inactive
MYOF | 0.791 | 1.35 | 0.91 | inactive
COMMD5 | 0.569 | 0.337 | 0.203 | inactive
PRELP | -1.69 | 0.384 | -1.58 | inactive
P2RX1 | 0.614 | 0.116 | -0.186 | inactive
LOC388416 (retired record) | -0.488 | -0.0891 | 0.141 | inactive
VWCE | 0.701 | 0.403 | 0.376 | inactive
THSD1 | -0.655 | -1.25 | -1.7 | inactive
PUS10 | 0.642 | 0.0274 | 0.0685 | inactive
NELFB | 0.76 | 1.46 | 1.91 | inactive
PLEKHA1 | -0.722 | -0.266 | -0.341 | inactive
SLC30A10 | -1.2 | -1.33 | -1.14 | inactive
CDC37 | 1.57 | -0.148 | 0.566 | inactive
TMEM132A | -0.0183 | 0.728 | -0.94 | inactive
SHH | 2.49 | 2.17 | 3.48 | active
FBXL18 | 1.44 | 1.93 | 1.33 | inactive
PSMB8 | -1.95 | -1.89 | -1.9 | inactive
